Experimental findings from publication PMC10780909 are described below.

The chains behind the UniProt entries cited, without tags or fusion partners. Residues count along the entry.
UniProt Q14449: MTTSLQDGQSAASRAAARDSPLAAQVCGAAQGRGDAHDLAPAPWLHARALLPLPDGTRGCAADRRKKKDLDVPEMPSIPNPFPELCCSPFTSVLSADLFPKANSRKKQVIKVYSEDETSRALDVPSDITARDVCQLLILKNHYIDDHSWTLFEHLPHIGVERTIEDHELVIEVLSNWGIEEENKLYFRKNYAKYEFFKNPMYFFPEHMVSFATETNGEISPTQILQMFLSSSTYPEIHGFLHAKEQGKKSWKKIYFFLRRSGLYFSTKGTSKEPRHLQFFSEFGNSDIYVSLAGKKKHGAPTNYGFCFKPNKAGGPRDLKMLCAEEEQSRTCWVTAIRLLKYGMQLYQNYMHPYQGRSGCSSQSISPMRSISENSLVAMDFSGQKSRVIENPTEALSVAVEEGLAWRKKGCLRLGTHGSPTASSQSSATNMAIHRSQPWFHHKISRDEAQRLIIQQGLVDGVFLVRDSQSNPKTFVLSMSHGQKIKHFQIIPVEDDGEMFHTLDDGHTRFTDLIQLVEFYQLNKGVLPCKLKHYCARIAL
UniProt P06213, residues 28-1382: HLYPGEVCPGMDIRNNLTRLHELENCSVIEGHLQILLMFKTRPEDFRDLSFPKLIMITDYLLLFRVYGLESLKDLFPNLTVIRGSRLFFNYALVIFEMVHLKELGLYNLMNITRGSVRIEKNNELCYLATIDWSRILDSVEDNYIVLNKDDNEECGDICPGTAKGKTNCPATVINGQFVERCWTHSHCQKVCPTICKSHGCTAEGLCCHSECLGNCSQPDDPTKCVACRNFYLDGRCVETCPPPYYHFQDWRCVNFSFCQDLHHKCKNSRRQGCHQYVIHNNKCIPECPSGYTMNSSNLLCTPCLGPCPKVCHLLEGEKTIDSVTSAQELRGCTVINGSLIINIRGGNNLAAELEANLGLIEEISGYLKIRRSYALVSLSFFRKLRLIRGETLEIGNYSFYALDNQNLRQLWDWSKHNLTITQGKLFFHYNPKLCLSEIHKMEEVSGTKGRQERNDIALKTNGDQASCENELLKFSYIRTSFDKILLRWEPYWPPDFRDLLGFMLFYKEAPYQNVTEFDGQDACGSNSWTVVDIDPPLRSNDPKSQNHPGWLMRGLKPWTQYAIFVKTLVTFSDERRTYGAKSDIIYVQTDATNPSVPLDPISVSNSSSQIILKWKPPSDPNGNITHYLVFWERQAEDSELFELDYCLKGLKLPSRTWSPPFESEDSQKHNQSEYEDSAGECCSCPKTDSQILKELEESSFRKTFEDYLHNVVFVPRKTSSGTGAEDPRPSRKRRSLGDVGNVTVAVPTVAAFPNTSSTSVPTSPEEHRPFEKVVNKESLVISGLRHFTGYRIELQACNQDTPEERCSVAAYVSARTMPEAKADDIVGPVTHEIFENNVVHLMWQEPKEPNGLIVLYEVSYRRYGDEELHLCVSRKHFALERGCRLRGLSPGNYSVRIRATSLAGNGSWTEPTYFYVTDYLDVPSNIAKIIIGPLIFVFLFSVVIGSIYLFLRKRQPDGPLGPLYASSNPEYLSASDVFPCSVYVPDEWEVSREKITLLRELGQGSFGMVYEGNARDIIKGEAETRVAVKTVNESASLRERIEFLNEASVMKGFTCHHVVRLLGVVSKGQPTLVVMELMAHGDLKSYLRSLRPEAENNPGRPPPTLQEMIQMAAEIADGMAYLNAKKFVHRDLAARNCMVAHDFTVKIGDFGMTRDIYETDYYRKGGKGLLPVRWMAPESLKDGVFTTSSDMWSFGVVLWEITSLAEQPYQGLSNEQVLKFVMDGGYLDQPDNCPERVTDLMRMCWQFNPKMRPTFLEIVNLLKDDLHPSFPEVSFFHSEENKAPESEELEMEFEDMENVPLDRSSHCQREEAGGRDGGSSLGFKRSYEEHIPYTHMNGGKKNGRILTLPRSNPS

The assay deals with growth factor receptor-bound protein 14 (Grb14) (human) (UniProt Q14449). Description: co-IP; Grb14 immobilised on agarose-conjugated Anti-V5-Tag beads from COS-7 lysate and washed; WGA (Glycoprotein Isolation Kit) purified IR added with 2% DMSO or compound 2 (200 µg/mL), 4 °C overnight; lysis buffer 50 mM Tris-HCl pH 7.4, 150 mM NaCl, 1% Triton X-100; bound IRβ detected by …; both purified.

No constants are given. Whether binding was seen depends on the method and setting. Some binding calls cover weakened binding; strength is not graded here.

Take “insulin receptor (IR) (from UniProt P06213 28-1382)”: the binding result was “binds”.
